Cleaved PARP in drug-treated melanoma cells

Source: doi:10.1371/journal.pone.0140310, primary screening data, rounded.

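Human melanoma cells were exposed to two drugs together for 72 h in 1,536-well plates and read by automated microscopy after fixing and staining. The read-out is the fraction of cleaved-PARP-positive nuclei, in % of that fraction in the DMSO control; 200 means twice the control level of this apoptosis marker. Concentrations were fixed for each drug; these are the higher of two levels. No replicate spread is given; individual values may be noisy. The marker varies much from line to line, for technical or biological reasons.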 An unselected part of the screen is shown. A dash means that no value is listed here.

Drugs:
etoposide: COc1cc([C@@H]2c3cc4c(cc3[C@@H](O[C@@H]3O[C@@H]5CO[C@@H](C)O[C@H]5[C@H](O)[C@H]3O)[C@H]3COC(=O)[C@H]23)OCO4)cc(OC)c1O at 0.1 µM
dovitinib: CN1CCN(c2ccc3nc(-c4c(N)c5c(F)cccc5[nH]c4=O)[nH]c3c2)CC1 at 0.5 µM
tozasertib: Cc1cc(Nc2cc(N3CCN(C)CC3)nc(Sc3ccc(NC(=O)C4CC4)cc3)n2)n[nH]1 at 0.03 µM
GW0742: Cc1cc(SCc2sc(-c3ccc(C(F)(F)F)c(F)c3)nc2C)ccc1OCC(=O)O at 10 µM
decitabine: Nc1ncn([C@H]2C[C@H](O)[C@@H](CO)O2)c(=O)n1 at 0.5 µM
KU-0063794: COc1ccc(-c2ccc3c(N4CCOCC4)nc(N4C[C@@H](C)O[C@@H](C)C4)nc3n2)cc1CO at 0.1 µM
PLX4720: CCCS(=O)(=O)Nc1ccc(F)c(C(=O)c2c[nH]c3ncc(Cl)cc23)c1F at 0.4 µM
crizotinib: C[C@@H](Oc1cc(-c2cnn(C3CCNCC3)c2)cnc1N)c1c(Cl)ccc(F)c1Cl at 1 µM
temozolomide: Cn1nnc2c(C(N)=O)ncn2c1=O at 10 µM

Combination | IPC-298 | G-361 | MZ2-MEL | SK-MEL-5 | WM3619 | WM115
temozolomide + PLX4720 | 139 | 242 | 33.4 | 333 | 119 | 281
KU-0063794 + decitabine | 261 | 126 | 57.3 | 595 | 144 | 65.7
decitabine + GW0742 | 175 | 16.9 | 163 | 138 | 116 | 258
etoposide + crizotinib | 138 | 131 | 109 | 184 | 156 | 359
crizotinib + PLX4720 | 56.0 | 177 | 92.6 | 148 | 85.9 | 133
dovitinib + crizotinib | 134 | 165 | 165 | 128 | 258 | 542
KU-0063794 + tozasertib | 106 | 313 | 182 | 52.5 | 144 | 108
etoposide + KU-0063794 | 212 | 91.9 | 45.9 | 337 | 137 | 125
crizotinib + GW0742 | 71.0 | 117 | 101 | 65.4 | 179 | 181
PLX4720 + KU-0063794 | 146 | 333 | 32.1 | 94.8 | 126 | 434
dovitinib + GW0742 | 165 | 246 | - | 79.4 | 102 | 223
PLX4720 + decitabine | 184 | 168 | 258 | 626 | 150 | 83.4
GW0742 + KU-0063794 | 69.1 | 122 | 115 | 146 | 119 | 54.9
temozolomide + dovitinib | 72.7 | 110 | 318 | 207 | 208 | 318
decitabine + tozasertib | 207 | 164 | 197 | 531 | 113 | 808
tozasertib + GW0742 | 108 | 188 | - | 180 | 235 | 162
PLX4720 + tozasertib | 70.5 | 208 | 78.9 | 141 | 118 | 286
crizotinib + decitabine | 167 | 131 | 160 | 87.9 | 79.0 | 205
tozasertib + etoposide | 112 | 49.7 | 197 | 32.8 | 133 | 251
PLX4720 + GW0742 | 107 | 251 | 140 | 232 | 129 | 170
temozolomide + etoposide | 76.3 | 136 | - | 50.9 | 96.9 | 159
crizotinib + temozolomide | 107 | 115 | 193 | 161 | 134 | 542
KU-0063794 + dovitinib | 256 | 142 | 49.1 | 193 | 179 | 34.6
decitabine + dovitinib | 95.1 | 200 | 248 | 324 | 135 | 802
dovitinib + tozasertib | 145 | 196 | 252 | 174 | 162 | 478
decitabine + etoposide | 390 | 178 | 112 | 169 | 75.0 | 294
dovitinib + PLX4720 | 86.7 | 622 | 292 | 242 | 113 | 109
decitabine + temozolomide | 85.0 | 83.7 | 257 | 90.2 | 141 | 162
KU-0063794 + temozolomide | 103 | 100 | 2140 | 231 | 171 | 121
tozasertib + crizotinib | 79.5 | 222 | 253 | 124 | 133 | 277
etoposide + dovitinib | 284 | 303 | 430 | 85.1 | 222 | 399
temozolomide + GW0742 | 49.5 | 97.0 | 47.6 | 106 | 117 | 123

For reference, 2 entries once more:

Combination,IPC-298,G-361,MZ2-MEL,SK-MEL-5,WM3619,WM115
tozasertib + etoposide,112,49.7,197,32.8,133,251
decitabine + temozolomide,85.0,83.7,257,90.2,141,162